According to the supplement of paper PMC10849652:
The other results are listed elsewhere or left out.

Protein sequences, listed by entry. Tags and fused reporters are not part of them. Lines headed by an entry give the natural chain unless they say otherwise; changes in a name come on top.
UniProt Q13769: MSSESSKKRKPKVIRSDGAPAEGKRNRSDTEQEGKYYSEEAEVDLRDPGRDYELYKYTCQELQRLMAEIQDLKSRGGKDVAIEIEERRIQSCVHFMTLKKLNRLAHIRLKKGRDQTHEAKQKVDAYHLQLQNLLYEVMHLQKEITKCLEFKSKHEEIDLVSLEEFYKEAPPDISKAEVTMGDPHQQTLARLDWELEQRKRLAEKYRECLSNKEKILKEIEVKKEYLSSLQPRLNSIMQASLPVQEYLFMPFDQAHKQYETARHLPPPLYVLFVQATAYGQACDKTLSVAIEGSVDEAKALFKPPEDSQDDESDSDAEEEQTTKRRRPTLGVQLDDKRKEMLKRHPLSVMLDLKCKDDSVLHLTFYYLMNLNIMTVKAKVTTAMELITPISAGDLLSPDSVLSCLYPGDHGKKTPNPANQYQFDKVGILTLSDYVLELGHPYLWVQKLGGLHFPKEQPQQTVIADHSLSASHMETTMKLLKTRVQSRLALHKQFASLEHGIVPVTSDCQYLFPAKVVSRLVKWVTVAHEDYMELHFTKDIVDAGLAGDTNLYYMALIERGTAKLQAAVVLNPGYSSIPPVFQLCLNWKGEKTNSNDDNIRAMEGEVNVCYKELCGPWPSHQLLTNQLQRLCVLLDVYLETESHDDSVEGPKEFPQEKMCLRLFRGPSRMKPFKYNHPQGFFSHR
UniProt Q9BVK6: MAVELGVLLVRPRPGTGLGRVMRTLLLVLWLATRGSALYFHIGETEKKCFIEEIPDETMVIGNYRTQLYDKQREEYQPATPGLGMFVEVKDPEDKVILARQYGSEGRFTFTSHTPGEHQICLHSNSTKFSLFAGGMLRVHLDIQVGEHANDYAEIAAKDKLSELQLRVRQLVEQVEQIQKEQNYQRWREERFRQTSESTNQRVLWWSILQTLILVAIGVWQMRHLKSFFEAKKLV
UniProt Q6PL24: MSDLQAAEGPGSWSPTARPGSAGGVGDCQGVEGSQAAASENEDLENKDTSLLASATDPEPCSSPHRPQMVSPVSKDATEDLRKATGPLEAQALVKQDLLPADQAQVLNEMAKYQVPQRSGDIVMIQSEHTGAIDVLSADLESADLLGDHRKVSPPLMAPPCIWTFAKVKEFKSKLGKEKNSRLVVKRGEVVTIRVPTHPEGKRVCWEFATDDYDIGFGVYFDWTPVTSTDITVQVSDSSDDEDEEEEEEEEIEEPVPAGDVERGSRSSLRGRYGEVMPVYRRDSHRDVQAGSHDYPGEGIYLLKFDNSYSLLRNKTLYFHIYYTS
UniProt Q8WUY1: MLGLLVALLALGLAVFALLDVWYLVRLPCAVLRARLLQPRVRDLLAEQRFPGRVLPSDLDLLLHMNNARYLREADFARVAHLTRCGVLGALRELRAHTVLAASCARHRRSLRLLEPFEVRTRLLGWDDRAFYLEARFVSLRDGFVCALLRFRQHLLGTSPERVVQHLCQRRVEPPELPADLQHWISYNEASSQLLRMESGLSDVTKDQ
UniProt Q96B77: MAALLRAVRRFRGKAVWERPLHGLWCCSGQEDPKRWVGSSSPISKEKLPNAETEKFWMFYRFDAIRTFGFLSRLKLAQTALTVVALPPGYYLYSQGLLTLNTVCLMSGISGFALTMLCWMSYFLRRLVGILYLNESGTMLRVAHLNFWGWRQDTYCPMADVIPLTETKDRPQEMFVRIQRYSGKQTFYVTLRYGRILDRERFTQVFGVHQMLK
UniProt Q15363: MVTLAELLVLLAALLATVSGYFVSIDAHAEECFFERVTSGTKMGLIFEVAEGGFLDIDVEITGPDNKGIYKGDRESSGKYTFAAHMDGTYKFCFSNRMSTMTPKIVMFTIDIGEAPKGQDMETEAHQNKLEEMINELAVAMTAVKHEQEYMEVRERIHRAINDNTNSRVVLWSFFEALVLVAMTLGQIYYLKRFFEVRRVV
UniProt Q8WUH2: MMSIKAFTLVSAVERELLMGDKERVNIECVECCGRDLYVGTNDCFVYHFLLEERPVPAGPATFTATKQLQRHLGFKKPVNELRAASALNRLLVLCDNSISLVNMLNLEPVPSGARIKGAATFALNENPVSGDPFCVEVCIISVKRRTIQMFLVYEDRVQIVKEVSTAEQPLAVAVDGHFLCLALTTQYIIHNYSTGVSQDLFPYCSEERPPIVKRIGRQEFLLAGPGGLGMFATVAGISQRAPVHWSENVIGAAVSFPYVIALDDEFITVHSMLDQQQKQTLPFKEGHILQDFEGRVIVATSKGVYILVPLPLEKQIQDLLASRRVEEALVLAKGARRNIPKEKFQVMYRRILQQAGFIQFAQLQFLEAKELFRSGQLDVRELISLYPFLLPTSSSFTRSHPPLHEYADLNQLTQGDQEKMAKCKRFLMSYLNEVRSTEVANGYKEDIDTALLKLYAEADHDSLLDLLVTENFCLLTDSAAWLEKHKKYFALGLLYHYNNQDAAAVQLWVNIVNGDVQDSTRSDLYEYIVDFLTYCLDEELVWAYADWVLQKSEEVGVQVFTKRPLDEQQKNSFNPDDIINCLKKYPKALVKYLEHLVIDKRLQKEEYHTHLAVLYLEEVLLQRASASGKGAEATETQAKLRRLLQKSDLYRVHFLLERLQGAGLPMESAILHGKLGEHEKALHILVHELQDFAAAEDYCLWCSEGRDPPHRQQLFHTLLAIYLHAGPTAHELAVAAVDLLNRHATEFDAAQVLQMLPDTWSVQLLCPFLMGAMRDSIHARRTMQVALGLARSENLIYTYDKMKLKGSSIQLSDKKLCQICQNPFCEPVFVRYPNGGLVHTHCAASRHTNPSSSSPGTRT
UniProt Q9H5L6: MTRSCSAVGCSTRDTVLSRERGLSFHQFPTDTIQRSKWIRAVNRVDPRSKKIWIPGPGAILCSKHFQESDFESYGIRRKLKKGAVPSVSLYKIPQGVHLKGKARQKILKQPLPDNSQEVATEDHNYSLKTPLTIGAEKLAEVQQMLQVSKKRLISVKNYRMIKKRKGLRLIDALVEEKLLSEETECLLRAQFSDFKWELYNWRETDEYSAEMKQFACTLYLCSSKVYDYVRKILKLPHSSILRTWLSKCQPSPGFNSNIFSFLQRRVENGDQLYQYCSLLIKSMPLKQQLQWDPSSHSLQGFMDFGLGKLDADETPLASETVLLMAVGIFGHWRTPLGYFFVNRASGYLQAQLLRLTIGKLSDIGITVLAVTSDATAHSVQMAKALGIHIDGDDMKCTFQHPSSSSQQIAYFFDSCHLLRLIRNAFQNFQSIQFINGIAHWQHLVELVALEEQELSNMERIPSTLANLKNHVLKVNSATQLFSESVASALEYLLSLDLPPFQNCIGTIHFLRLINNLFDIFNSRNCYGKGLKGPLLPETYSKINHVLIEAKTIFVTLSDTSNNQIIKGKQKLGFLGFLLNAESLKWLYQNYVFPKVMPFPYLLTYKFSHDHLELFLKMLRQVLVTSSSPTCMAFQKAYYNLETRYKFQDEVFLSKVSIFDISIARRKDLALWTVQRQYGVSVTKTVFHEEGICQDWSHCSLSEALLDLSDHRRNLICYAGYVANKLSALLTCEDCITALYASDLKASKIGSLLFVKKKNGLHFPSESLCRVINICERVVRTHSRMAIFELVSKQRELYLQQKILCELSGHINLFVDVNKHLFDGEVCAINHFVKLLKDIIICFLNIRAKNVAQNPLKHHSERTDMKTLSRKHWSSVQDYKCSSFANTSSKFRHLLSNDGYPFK
UniProt Q5TEJ8: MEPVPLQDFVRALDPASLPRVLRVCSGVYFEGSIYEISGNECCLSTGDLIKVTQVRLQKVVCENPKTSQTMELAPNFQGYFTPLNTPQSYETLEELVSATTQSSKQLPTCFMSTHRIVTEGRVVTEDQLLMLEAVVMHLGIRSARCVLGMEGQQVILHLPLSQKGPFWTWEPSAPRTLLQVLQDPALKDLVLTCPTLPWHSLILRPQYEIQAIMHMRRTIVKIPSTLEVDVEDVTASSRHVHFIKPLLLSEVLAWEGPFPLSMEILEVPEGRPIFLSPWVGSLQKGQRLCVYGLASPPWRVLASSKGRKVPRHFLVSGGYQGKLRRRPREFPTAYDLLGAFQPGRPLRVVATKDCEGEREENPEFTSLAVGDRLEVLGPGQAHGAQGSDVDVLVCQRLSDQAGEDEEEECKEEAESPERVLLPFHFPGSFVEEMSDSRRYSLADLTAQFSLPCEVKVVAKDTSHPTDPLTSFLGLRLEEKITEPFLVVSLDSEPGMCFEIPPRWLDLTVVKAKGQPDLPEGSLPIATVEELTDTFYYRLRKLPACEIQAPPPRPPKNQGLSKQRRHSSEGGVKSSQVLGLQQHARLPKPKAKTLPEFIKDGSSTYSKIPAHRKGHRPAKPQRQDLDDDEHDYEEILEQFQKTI
UniProt Q9BXJ8: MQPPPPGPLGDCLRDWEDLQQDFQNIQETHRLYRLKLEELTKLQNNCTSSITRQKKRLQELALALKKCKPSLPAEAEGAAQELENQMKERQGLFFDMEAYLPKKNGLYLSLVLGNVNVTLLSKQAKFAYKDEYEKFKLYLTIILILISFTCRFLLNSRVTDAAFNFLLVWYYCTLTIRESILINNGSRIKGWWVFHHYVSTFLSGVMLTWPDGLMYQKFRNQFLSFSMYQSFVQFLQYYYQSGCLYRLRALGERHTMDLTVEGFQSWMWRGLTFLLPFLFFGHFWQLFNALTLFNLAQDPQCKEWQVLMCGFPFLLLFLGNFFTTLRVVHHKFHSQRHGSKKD
UniProt Q86UE8, whole entry, looked up: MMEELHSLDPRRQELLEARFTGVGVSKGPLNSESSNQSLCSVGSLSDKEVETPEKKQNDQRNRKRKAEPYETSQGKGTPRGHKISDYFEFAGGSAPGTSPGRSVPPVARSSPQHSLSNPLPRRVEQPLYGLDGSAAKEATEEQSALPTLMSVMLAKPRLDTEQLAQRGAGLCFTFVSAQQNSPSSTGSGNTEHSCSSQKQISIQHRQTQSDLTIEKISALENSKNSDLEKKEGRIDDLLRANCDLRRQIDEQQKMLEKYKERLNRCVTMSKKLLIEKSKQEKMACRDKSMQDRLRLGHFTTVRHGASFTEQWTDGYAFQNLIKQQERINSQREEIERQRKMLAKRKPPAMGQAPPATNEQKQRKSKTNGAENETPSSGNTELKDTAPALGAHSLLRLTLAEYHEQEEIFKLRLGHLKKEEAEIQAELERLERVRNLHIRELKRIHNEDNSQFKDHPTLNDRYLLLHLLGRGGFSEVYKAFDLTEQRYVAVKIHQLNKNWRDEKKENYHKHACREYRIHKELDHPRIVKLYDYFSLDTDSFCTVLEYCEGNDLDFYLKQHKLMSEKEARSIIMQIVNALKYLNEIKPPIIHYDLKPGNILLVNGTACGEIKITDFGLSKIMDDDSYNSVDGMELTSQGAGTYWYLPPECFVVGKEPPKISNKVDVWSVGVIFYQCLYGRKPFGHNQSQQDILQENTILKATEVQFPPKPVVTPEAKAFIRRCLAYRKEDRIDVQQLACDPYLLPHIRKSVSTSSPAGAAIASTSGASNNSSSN
UniProt Q9H7F4: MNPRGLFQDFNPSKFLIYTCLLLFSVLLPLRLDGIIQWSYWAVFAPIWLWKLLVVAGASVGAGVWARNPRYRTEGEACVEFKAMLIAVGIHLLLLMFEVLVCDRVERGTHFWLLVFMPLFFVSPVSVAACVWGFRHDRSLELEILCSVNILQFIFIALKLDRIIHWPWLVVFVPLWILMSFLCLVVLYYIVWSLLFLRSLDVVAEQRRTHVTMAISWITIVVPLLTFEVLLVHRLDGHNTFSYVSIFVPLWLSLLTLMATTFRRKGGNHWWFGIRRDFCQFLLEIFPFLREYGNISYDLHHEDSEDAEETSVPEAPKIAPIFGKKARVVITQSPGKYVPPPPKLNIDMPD
UniProt Q9BVW5: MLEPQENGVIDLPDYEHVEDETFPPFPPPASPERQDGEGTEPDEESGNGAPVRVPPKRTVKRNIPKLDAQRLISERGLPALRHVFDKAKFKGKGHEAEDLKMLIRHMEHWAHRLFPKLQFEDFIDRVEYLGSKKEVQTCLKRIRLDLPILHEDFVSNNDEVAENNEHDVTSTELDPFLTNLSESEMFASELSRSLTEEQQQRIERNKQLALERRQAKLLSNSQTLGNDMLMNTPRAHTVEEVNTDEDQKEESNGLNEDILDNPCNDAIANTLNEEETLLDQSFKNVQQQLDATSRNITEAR
UniProt Q99595: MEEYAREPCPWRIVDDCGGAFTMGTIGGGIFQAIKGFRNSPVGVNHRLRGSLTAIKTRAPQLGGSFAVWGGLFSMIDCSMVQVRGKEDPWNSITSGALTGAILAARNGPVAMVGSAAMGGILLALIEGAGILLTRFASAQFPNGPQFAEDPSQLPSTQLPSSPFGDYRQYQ
UniProt Q9HC07: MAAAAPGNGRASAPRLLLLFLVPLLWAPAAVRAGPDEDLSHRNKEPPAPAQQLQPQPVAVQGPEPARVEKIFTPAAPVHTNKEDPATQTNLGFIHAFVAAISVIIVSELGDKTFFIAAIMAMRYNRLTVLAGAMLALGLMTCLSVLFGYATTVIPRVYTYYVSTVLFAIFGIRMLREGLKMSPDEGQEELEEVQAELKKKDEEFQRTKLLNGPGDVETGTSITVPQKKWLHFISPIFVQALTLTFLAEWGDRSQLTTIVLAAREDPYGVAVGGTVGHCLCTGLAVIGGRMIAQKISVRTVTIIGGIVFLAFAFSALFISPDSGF

Experiments:
Test in all cases: log2 fold change, soluble protein after heating vs DMSO (PISA); higher = thermal stabilisation; K562 lysate, 10 uM; active = over 0.2 and 3.5 SD of the protein, either way, in both replicates (recomputed)
[1] = compound: CCCS(=O)(=O)Nc1ccc(F)c(C(=O)c2c[nH]c3ncc(-c4ccc(Cl)cc4)cc23)c1F [vemurafenib]
In short: (§1)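 The values are log-two fold changes in thermal stability compared with solvent controls and come from duplicates. They were obtained by TMTpro 16plex LC-MS/MS, with channel sums equalised, on the supernatant after 21,000xg for 90 min. That supernatant came from crude K562 extract at 1 mg/mL protein treated with 10 μM compound for 30 min, heated for 3 min across 48°C-58°C, pooled and brought to 0.5% NP-40 at 4°C.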

[2] = compound: CCCS(=O)(=O)Nc1ccc(F)c(C(=O)c2c[nH]c3ncc(Cl)cc23)c1F
In short: as §1

[3] = compound: CCN(CCCOc1ccc2c(Nc3cc(CC(=O)Nc4cccc(F)c4)[nH]n3)ncnc2c1)CCOP(=O)(O)O [barasertib]
In short: as §1

[4] = compound: CC[C@@H]1C(=O)N(C)c2cnc(Nc3ccc(C(=O)NC4CCN(C)CC4)cc3OC)nc2N1C1CCCC1
In short: as §1

[5] = compound: CC[C@@H]1C(=O)N(C)c2cnc(Nc3ccc(C(=O)N[C@H]4CC[C@H](N5CCN(CC6CC6)CC5)CC4)cc3OC)nc2N1C(C)C [volasertib]
In short: as §1

[6] = compound: CCn1c(C(=O)N(C2CC2)C2CC2)cc2c3c(ncn3C)c(Nc3cc(C)n(C)n3)nc21
In short: as §1

[7] = compound: CCn1cc(-c2ccnc3[nH]c(-c4cccc(CN(C)C)c4)cc23)c(-c2ccc(NC(=O)N(C)C)cc2)n1
In short: as §1

[8] = compound: CN1CCC(CNc2ccc3ncc(-c4cccc(OC(F)(F)F)c4)n3n2)CC1
In short: as §1

[9] = compound: CN1CCN(CCOc2cc(OC3CCOCC3)c3c(Nc4c(Cl)ccc5c4OCO5)ncnc3c2)CC1 [saracatinib]
In short: as §1

[10] = compound: CN1CCN(c2nc(C3=C(c4c[nH]c5ccccc45)C(=O)NC3=O)c3ccccc3n2)CC1 [sotrastaurin]
In short: as §1

| Target | log2 fold change [1] | log2 fold change [2] | log2 fold change [3] | log2 fold change [4] | log2 fold change [5] | log2 fold change [6] | log2 fold change [7] | log2 fold change [8] | log2 fold change [9] | log2 fold change [10] |
| --- | --- | --- | --- | --- | --- | --- | --- | --- | --- | --- |
| THOC5 (UniProt Q13769) | inactive: 0.005 | inactive: 0.013 | inactive: -0.023 | inactive: -0.031 | inactive: -0.008 | inactive: 0.008 | inactive: 0.02 | inactive: -0.008 | inactive: 0.024 | inactive: 0.013 |
| TMED9 (UniProt Q9BVK6) | inactive: 0.02 | inactive: 0.02 | inactive: -0.021 | inactive: 0.064 | inactive: 0.025 | inactive: 0.017 | inactive: 0.015 | inactive: 0.02 | inactive: -0.037 | inactive: 0.034 |
| TMED8 (UniProt Q6PL24) | inactive: 0.049 | inactive: -0.02 | inactive: -0.065 | inactive: -0.012 | inactive: -0.032 | inactive: 0.055 | inactive: -0.027 | inactive: 0.033 | inactive: 0.024 | inactive: 0.011 |
| THEM6 (UniProt Q8WUY1) | inactive: 0.03 | inactive: 0.007 | inactive: -0.017 | inactive: -0.038 | inactive: -0.019 | inactive: 0.015 | inactive: 0.022 | inactive: 0.038 | inactive: -0.049 | inactive: -0.044 |
| TMEM186 (UniProt Q96B77) | inactive: 0.035 | inactive: 0.018 | inactive: 0.062 | inactive: 0.018 | inactive: 0.029 | inactive: -0.037 | inactive: 0.25 | inactive: -0.114 | inactive: -0.047 | inactive: -0.04 |
| TMED2 (UniProt Q15363) | inactive: -0.018 | inactive: 0.003 | inactive: 0.034 | inactive: 0.035 | inactive: -0.017 | inactive: -0.022 | inactive: -0.039 | inactive: 0.012 | inactive: -0.032 | inactive: 0.004 |
| TGFBRAP1 (UniProt Q8WUH2) | inactive: -0.031 | inactive: 0.02 | inactive: 0.031 | inactive: -0.069 | inactive: -0.062 | inactive: 0.049 | inactive: 0 | inactive: -0.075 | inactive: 0.005 | inactive: -0.001 |
| THAP9 (UniProt Q9H5L6) | inactive: 0.199 | inactive: 0.07 | inactive: 0.117 | inactive: 0.309 | inactive: 0.088 | inactive: -0.401 | active: -0.66 | inactive: 0.151 | inactive: 0 | inactive: 0.076 |
| THEMIS2 (UniProt Q5TEJ8) | inactive: -0.004 | inactive: 0.11 | inactive: -0.052 | inactive: 0.016 | inactive: 0.132 | inactive: 0.015 | inactive: -0.019 | inactive: 0.004 | inactive: 0.01 | inactive: -0.016 |
| TMEM120A (UniProt Q9BXJ8) | inactive: -0.111 | inactive: 0.021 | inactive: 0.099 | inactive: -0.021 | inactive: 0.003 | inactive: -0.007 | inactive: 0.017 | inactive: -0.093 | inactive: -0.031 | inactive: 0.03 |
| TLK2 isoform 2 (UniProt Q86UE8) | inactive: -0.015 | inactive: -0.011 | inactive: 0.017 | inactive: -0.068 | inactive: -0.03 | inactive: -0.009 | inactive: -0.171 | inactive: 0.085 | inactive: 0.021 | active: 0.26 |
| TMEM185B (UniProt Q9H7F4) | inactive: -0.148 | inactive: 0.016 | inactive: -0.109 | inactive: -0.089 | inactive: -0.076 | inactive: 0.006 | inactive: 0.091 | inactive: -0.069 | inactive: 0.08 | inactive: -0.026 |
| TIPIN (UniProt Q9BVW5) | inactive: -0.005 | inactive: 0.017 | inactive: 0.042 | inactive: -0.022 | inactive: -0.028 | inactive: 0 | inactive: -0.072 | inactive: 0.06 | inactive: 0.045 | inactive: 0.028 |
| TIMM17A (UniProt Q99595) | inactive: 0.038 | inactive: -0.065 | inactive: 0.026 | inactive: 0.03 | inactive: -0.017 | inactive: 0.059 | inactive: -0.076 | inactive: 0.066 | inactive: -0.035 | inactive: 0.029 |
| TMEM165 (UniProt Q9HC07) | inactive: -0.013 | inactive: 0.024 | inactive: -0.065 | inactive: 0.034 | inactive: 0.017 | inactive: -0.013 | inactive: -0.07 | inactive: 0.101 | inactive: 0.032 | inactive: 0 |
